PubChem BioAssay AID686937 | Drosophila RNAi Screening Center – 2013
Purpose: 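Genes whose loss weakens secretory pathway function in fly cells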 (primary screen). Cell system: Drosophila S2 cells expressing secreted horseradish peroxidase. Reagent: long dsRNA against Drosophila genes. Timing: about 5.5 days (5 days dsRNA, then 12 h reporter induction). Treatment: reporter expression induced after 5 days of dsRNA, read 12 h later; inducer not stated. Read-out: 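After 5 days of dsRNA and 12 h of reporter induction, medium peroxidase read by chemiluminescence and scored as per-plate z-score; higher values mean more reporter released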. Reading the numbers: z-score: higher = more reporter secreted into medium.
The deposit covers about 23,000 reagents; this is an unselected part of those with a known target gene and a result. 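Reduced-secretion tags in replicate 1 do not always agree with the z-scores; no criterion for assigning the tags was given.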 A plus sign joins genes that one reagent is predicted to hit. Not stated in the record: the amount of reagent.

target gene	DRSC id	z-score, replicate 1	z-score, replicate 2	z-score, replicate 3	z-score, replicate 4	phenotype, replicate 1
CG3163	DRSC04341	0.26	0.17			
Efr	DRSC18322	0.43	0.33			
CG30158	DRSC04956	0.15				
CG30158	DRSC04974	0.4	0.25			
CG30158	DRSC04975	0.31	0.27			
CG30158	DRSC05012	0.3	0.23			
CG34427	DRSC09978	0.26	0.11			
SdhB	DRSC05018	0.01	0.54	-0.16	-0.22	
SdhB	DRSC21367	1.35	-0.6			
CG17217	DRSC02592	0.26	0.07			
eca	DRSC22290	0.07	0.05			
phr6-4	DRSC03589	1.13	0.65			
mTor	DRSC02811	-1.28	-1.06			
CG12795	DRSC00354	0.11	0.21			
Grl58a	DRSC04145	0.02	0.17			
CG13727	DRSC10055	0.25	-0.4			
CG31688	DRSC02117	-0.07	-0.15			
CG31688	DRSC02682	0.05	-0.44			
Mocs2A + Mocs2B	DRSC13697	0.66	0.26			
Mocs2A + Mocs2B	DRSC14219	0.06	0.06			
xmas	DRSC21306	-2.28	-0.21			reduced secretion
xmas	DRSC22178	-0.41	0.11			
Smyd4-2	DRSC10126	0.32	-0.02			
Lgr1	DRSC16675	0.4	0.46			
CG32834	DRSC21929	0.15	-0.06			
Su(dx)	DRSC00791	0.27	0.18			
CG42342	DRSC13165	0.4	0.53			
CG42342	DRSC14378	-1.45	-0.23			reduced secretion
CG42342	DRSC15010	-0.12	0.45			
CG42342	DRSC15011	-0.11	0.4			
CG42342	DRSC15012	-0.07	0.29			
CG42342	DRSC21791	-0.28	-0.31			
CG42342	DRSC22861	-0.74	0.14			
CG7840	DRSC03075	0.02	0.2			
CG42697	DRSC05740	0.41	-0.08			
CG14625	DRSC18633	0.37	0.35			
Ssadh	DRSC15621	0.26	0.14			
CG13585	DRSC04221	0.5	0.36			
Pdf	DRSC16786	-2.47	-0.67			
Rbp9	DRSC00416	0.56	0.44			
Rbp9	DRSC00779	0.96	0.79			
CG7408	DRSC10841	0.19	0.25			
CG42271	DRSC19809	0.4	0.41			
CG42271	DRSC22894	-1	-0.48			
Arp3	DRSC09669	0.47	0.39			
uif	DRSC00963	0.43	0.2			
uif	DRSC03427	0.02	0.26			
RpS14a	DRSC18710	-1.71	-2.82			reduced secretion
CG5290	DRSC10501	0.45	0.63			
l(3)80Fg	DRSC21645	-0.13	-0.33			
l(3)80Fg	DRSC22171	-0.41	-0.43			
Aps	DRSC10629	0.31	0.23			
CR17567 (retired record)	DRSC02627	-0.01	0.29			
CR17567 (retired record)	DRSC22537	0.27	0			
CG14052	DRSC17907	-0.1	-0.53			
CG14052	DRSC18192	0.53	0.56			
Atg8b	DRSC14501	0.2	0.37			
Lipt2	DRSC12338	0.18	0.41	0.49	0.23	
Lipt2	DRSC22610	-0.57	-0.02			
PrBP	DRSC03189	0.73	0.48			
Lcp65Ae	DRSC11212	0.27	-0.06			
Hrd3	DRSC14156	-0.06	0.19			
ckd	DRSC08418	0.22	0.29			
Dfd	DRSC12593	0.32	0.22			
Lip3	DRSC16727	0.32	0.51	-0.12	0.32	
CG33090	DRSC01908	-0.12	0.1			
CG2076	DRSC19832	0.44	0			
CG18262	DRSC18149	0.37	0.18			
CG30046	DRSC06691	0.37	0.12			
Actbeta	DRSC17185	0.51	0.63			
Actbeta	DRSC17217	0.26	0.27			
CG13631	DRSC14632	0.16	0.32			
Ugt36A1	DRSC00748	0.44	0.3			
SkpB	DRSC07683	0.34	0.42			
CG11403	DRSC18532	0.2	0.19			
NTPase	DRSC00761	0.21	0.38			
DhpD	DRSC12288	0.4	0.28			
CG12547	DRSC07759	0.29	0.19			
Brf	DRSC13228	0.01	0.81			
Brf	DRSC14166	-0.21	-0.96			
Brf	DRSC14167	0.11	-0.6			
CG9346	DRSC04542	0.1	0.43			

An excerpt from above, limited to “z-score, replicate 2”.
ckd [DRSC08418] = 0.29
Dfd [DRSC12593] = 0.22
Lip3 [DRSC16727] = 0.51
CG33090 [DRSC01908] = 0.1
